For 2 molecules, binding results are on record in publication PMC6300487.

Results are given in words; binding and its absence hold for the method and conditions named. Binding seen in cells or lysates may run through a third protein. These calls come from enrichment with a bait or labelling near it, and not all partners need be listed. Where a sequence is shown, tags or fusion partners need not be part of it.

In the assay the target is T1, SFB-tagged WWOX (WW domain-containing oxidoreductase) (human) (UniProt Q9NZC7).
T1 sequence: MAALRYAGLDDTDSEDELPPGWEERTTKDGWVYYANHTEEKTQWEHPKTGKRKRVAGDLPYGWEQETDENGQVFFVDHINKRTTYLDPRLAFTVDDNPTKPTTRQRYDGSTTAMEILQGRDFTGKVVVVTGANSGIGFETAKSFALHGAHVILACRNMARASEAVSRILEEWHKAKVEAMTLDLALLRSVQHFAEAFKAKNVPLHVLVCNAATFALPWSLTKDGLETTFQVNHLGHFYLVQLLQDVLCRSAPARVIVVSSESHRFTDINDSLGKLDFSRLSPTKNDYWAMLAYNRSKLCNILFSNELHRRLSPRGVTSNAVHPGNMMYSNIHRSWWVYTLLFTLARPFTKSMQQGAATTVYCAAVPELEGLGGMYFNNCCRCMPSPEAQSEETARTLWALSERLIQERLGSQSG
Description: affinity purification with mass spectrometry; tandem affinity purification from lysate (NETN buffer) of HEK293T cells stably expressing C-terminally SFB-tagged WWOX: streptavidin beads, elution with 2 mg/ml biotin, then S protein beads; LC-MS/MS; two replicates; hits filtered by MUSE interaction score and CRAPome frequency.

B1: Catsper Channel Auxiliary Subunit Epsilon (protein, UniProt Q5SY80 20-951)
chain: LWRYSTNSPNYRIFSTRSTIKLEYEGTLFTEWSVPETCFVLNKSSPTTELRCSSPGVHAIKPIVTGPDEEERYLFVESSHTCFLWYYRVRHFFNNFTQLITVWAYDPESADPDELLGNAEEPSINSIVLSTQMATLGQKPVIHTVLKRKVYSSNEKMRRGTWRIVVPMTKDDALKEIRGNQVTFQDCFIADFLILLTFPLLTIPEIPGYLPISSPRGSQLMASWDACVVASAVLVTDMETFHTTDSFKSWTRIRVPPDILSDDERRSVAHVILSRDGIVFLINGVLYIKSFRGFIRLGGIVNLPDGGITGISSRKWCWVNYLLKAKGRRSTFAVWTENEIYLGSILLKFARLVTTTELKNILSLSVTATLTIDRVEYTGHPLEIAVFLNYCTVCNVTKKIFLVIYNEDTKQWVSQDFTLDAPIDSVTMPHFTFSALPGLLLWNKHSIYYCYHNFTFTGILQTPAGHGNLSMLSNDSIIHEVFIDYYGDILVKMENNVIFYSKINTRDAVKLHLWTNYTTRAFIFLSTSGQTYFLYALDDGTIQIQDYPLHLEAQSIAFTTKDKCPYMAFHNNVAHVFYFLDKGEALTVWTQIVYPENTGLYVIVESYGPKILQESHEISFEAAFGYCTKTLTLTFYQNVDYERISDYFETQDKHTGLVLVQFRPSEYSKACPIAQKVFQIAVGCDDKKFIAIKGFSKKGCHHHDFSYVIEKSYLRHQPSKNLRVRYIWGEYGCPLRLDFTEKFQPVVQLFDDNGYVKDVEANFIVWEIHGRDDYSFNNTMAQSGCLHEAQTWKSMIELNKHLPLEEVWGPENYKHCFSYAIGKPGDLNQPYEIINSSNGNHIFWPMGHSGMYVFRVKILDPNYSFCNLTAMFAIETFGLIPSPSVYLVASFLFVLMLLFFTILVLSYFRYMRIYRRYIYEPLHKPQRKRKKN
On to B1, for which the binding result is recorded as “binds”.

B2: Disheveled 1 (protein, UniProt O14640 1-695)
chain: MAETKIIYHMDEEETPYLVKLPVAPERVTLADFKNVLSNRPVHAYKFFFKSMDQDFGVVKEEIFDDNAKLPCFNGRVVSWLVLAEGAHSDAGSQGTDSHTDLPPPLERTGGIGDSRPPSFHPNVASSRDGMDNETGTESMVSHRRERARRRNREEAARTNGHPRGDRRRDVGLPPDSASTALSSELESSSFVDSDEDGSTSRLSSSTEQSTSSRLIRKHKRRRRKQRLRQADRASSFSSITDSTMSLNIVTVTLNMERHHFLGISIVGQSNDRGDGGIYIGSIMKGGAVAADGRIEPGDMLLQVNDVNFENMSNDDAVRVLREIVSQTGPISLTVAKCWDPTPRSYFTVPRADPVRPIDPAAWLSHTAALTGALPRYGTSPCSSAVTRTSSSSLTSSVPGAPQLEEAPLTVKSDMSAVVRVMQLPDSGLEIRDRMWLKITIANAVIGADVVDWLYTHVEGFKERREARKYASSLLKHGFLRHTVNKITFSEQCYYVFGDLCSNLATLNLNSGSSGTSDQDTLAPLPHPAAPWPLGQGYPYQYPGPPPCFPPAYQDPGFSYGSGSTGSQQSEGSKSSGSTRSSRRAPGREKERRAAGAGGSGSESDHTAPSGVGSSWRERPAGQLSRGSSPRSQASATAPGLPPPHPTTKAYTVVGGPPGGPPVRELAAVPPELTGSRQSFQKAMGNPCEFFVDIM
For B2, the binding result was “binds”.
